{"source": "PubChem BioAssay AID1259405 | NCATS | 2018", "test": "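Silenced genes that increase secreted GFP made by CHO cells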 (primary screen)", "cells": "Chinese hamster CHO-K1 ovary cells with stable secreted eGFP expression", "reagent": "single siRNA against mouse genes, 0.8 pmol siRNA per well (2 µl of 400 nM stock)", "timing": "3 days", "measured": "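Per-well intracellular GFP measured by laser scanning cytometry, plus viability from ATP luminescence, each relative to plate median of non-targeting control wells, in %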", "direction": "GFP, % of control: higher = more GFP per well, higher productivity; viability (ATP), % of control: higher = more viable cells (more ATP)", "call rule": "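Called active when intracellular GFP, relative to negative control, is at or above 120%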", "note": "Shown is a random part of about 50,000 reagents. In the full data, about 4,000 (8%) are marked active. 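Mouse siRNA library applied to hamster cells; one well for each siRNA.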 Reagents against one gene are numbered here."}
{"gene":"Ebf1","reagent no.":1,"GFP, % of control":82.4,"viability (ATP), % of control":72.5,"Call":"inactive"}
{"gene":"Ebf1","reagent no.":2,"GFP, % of control":66,"viability (ATP), % of control":67,"Call":"inactive"}
{"gene":"Ebf1","reagent no.":3,"GFP, % of control":37.7,"viability (ATP), % of control":73.6,"Call":"inactive"}
{"gene":"Shisal2b","reagent no.":1,"GFP, % of control":107,"viability (ATP), % of control":69,"Call":"inactive"}
{"gene":"Shisal2b","reagent no.":2,"GFP, % of control":107,"viability (ATP), % of control":48.8,"Call":"inactive"}
{"gene":"Shisal2b","reagent no.":3,"GFP, % of control":62.6,"viability (ATP), % of control":68.3,"Call":"inactive"}
{"gene":"Kcnk10","reagent no.":1,"GFP, % of control":81.1,"viability (ATP), % of control":107,"Call":"inactive"}
{"gene":"Kcnk10","reagent no.":2,"GFP, % of control":110,"viability (ATP), % of control":77.3,"Call":"inactive"}
{"gene":"Kcnk10","reagent no.":3,"GFP, % of control":84.4,"viability (ATP), % of control":79.7,"Call":"inactive"}
{"gene":"Tgfbi","reagent no.":1,"GFP, % of control":39.2,"viability (ATP), % of control":53.9,"Call":"inactive"}
{"gene":"Tgfbi","reagent no.":2,"GFP, % of control":99.1,"viability (ATP), % of control":90.1,"Call":"inactive"}
{"gene":"Lim2","reagent no.":1,"GFP, % of control":102,"viability (ATP), % of control":57.2,"Call":"inactive"}
{"gene":"Lim2","reagent no.":2,"GFP, % of control":63.2,"viability (ATP), % of control":68.1,"Call":"inactive"}
{"gene":"Lim2","reagent no.":3,"GFP, % of control":78.2,"viability (ATP), % of control":110,"Call":"inactive"}
{"gene":"Mmp10","reagent no.":1,"GFP, % of control":105,"viability (ATP), % of control":123,"Call":"inactive"}
{"gene":"Mmp10","reagent no.":2,"GFP, % of control":38.7,"viability (ATP), % of control":58.2,"Call":"inactive"}
{"gene":"Gpr137c","reagent no.":1,"GFP, % of control":151,"viability (ATP), % of control":113,"Call":"active"}
{"gene":"Gpr137c","reagent no.":2,"GFP, % of control":49.5,"viability (ATP), % of control":78.7,"Call":"inactive"}
{"gene":"Gpr137c","reagent no.":3,"GFP, % of control":81.1,"viability (ATP), % of control":77.6,"Call":"inactive"}
{"gene":"Trhde","reagent no.":1,"GFP, % of control":106,"viability (ATP), % of control":95.6,"Call":"inactive"}
{"gene":"Trhde","reagent no.":2,"GFP, % of control":116,"viability (ATP), % of control":87.2,"Call":"inactive"}
{"gene":"Trhde","reagent no.":3,"GFP, % of control":81.8,"viability (ATP), % of control":63.8,"Call":"inactive"}
{"gene":"Atp6v1g1","reagent no.":1,"GFP, % of control":91.9,"viability (ATP), % of control":63.1,"Call":"inactive"}
{"gene":"Atp6v1g1","reagent no.":2,"GFP, % of control":93.4,"viability (ATP), % of control":79.5,"Call":"inactive"}
{"gene":"Atp6v1g1","reagent no.":3,"GFP, % of control":30.9,"viability (ATP), % of control":22.6,"Call":"inactive"}
{"gene":"Coq4","reagent no.":1,"GFP, % of control":66.6,"viability (ATP), % of control":85.6,"Call":"inactive"}
{"gene":"Coq4","reagent no.":2,"GFP, % of control":36.5,"viability (ATP), % of control":32.3,"Call":"inactive"}
{"gene":"Coq4","reagent no.":3,"GFP, % of control":78.7,"viability (ATP), % of control":87.3,"Call":"inactive"}
{"gene":"Tnfsf15","reagent no.":1,"GFP, % of control":47.3,"viability (ATP), % of control":22.1,"Call":"inactive"}
{"gene":"Tnfsf15","reagent no.":2,"GFP, % of control":65.4,"viability (ATP), % of control":71.5,"Call":"inactive"}
{"gene":"Tnfsf15","reagent no.":3,"GFP, % of control":64.3,"viability (ATP), % of control":57.1,"Call":"inactive"}
{"gene":"Prps1","reagent no.":1,"GFP, % of control":100,"viability (ATP), % of control":67.4,"Call":"inactive"}
{"gene":"Krt13","reagent no.":1,"GFP, % of control":45.5,"viability (ATP), % of control":49.5,"Call":"inactive"}
{"gene":"Krt13","reagent no.":2,"GFP, % of control":65.1,"viability (ATP), % of control":67.8,"Call":"inactive"}
{"gene":"Krt13","reagent no.":3,"GFP, % of control":114,"viability (ATP), % of control":75.1,"Call":"inactive"}
{"gene":"Slc17a4","reagent no.":1,"GFP, % of control":70.6,"viability (ATP), % of control":110,"Call":"inactive"}
{"gene":"Slc17a4","reagent no.":2,"GFP, % of control":45.7,"viability (ATP), % of control":43.3,"Call":"inactive"}
{"gene":"Slc17a4","reagent no.":3,"GFP, % of control":94.6,"viability (ATP), % of control":107,"Call":"inactive"}
{"gene":"Tmsb10","reagent no.":1,"GFP, % of control":74.4,"viability (ATP), % of control":74.6,"Call":"inactive"}
{"gene":"Tmsb10","reagent no.":2,"GFP, % of control":88.1,"viability (ATP), % of control":74.5,"Call":"inactive"}
{"gene":"Tmsb10","reagent no.":3,"GFP, % of control":116,"viability (ATP), % of control":105,"Call":"inactive"}

A few values from above.
For “GFP, % of control”, Tmsb10 #1 is entered as 74.4
Kcnk10 #2, GFP, % of control → 110
Value for Atp6v1g1 #1 under “Call”: inactive
Value for Prps1 in “viability (ATP), % of control”: 67.4
For “Call”, Tgfbi #2 reads inactive
Ebf1 #2, GFP, % of control → 66
